Data as given in article doi:10.1101/2025.06.02.657351.
These are yes or no findings as the source states them, for the method shown. In cells and extracts the contact can be indirect. These calls come from enrichment with a bait or labelling near it, and not all partners need be listed.

Amino acid sequences for entries named in this document (tags omitted).
UniProt Q16611, whole entry: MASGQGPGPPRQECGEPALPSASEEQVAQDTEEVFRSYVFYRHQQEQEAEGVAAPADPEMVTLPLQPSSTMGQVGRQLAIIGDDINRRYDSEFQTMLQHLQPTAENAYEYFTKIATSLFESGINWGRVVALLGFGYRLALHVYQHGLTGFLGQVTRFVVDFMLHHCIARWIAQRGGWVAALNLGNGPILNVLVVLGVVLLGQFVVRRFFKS

Target: BAK (human (endogenous in HeLa)) (UniProt Q16611)
Test: affinity purification with mass spectrometry

B1: OmpA of Chlamydia trachomatis serovar L2, made by the bacteria during infection of HeLa cells (protein, UniProt P06597 23-394)
chain: LPVGNPAEPSLMIDGILWEGFGGDPCDPCTTWCDAISMRMGYYGDFVFDRVLQTDVNKEFQMGAKPTTATGNAAAPSTCTARENPAYGRHMQDAEMFTNAAYMALNIWDRFDVFCTLGATSGYLKGNSASFNLVGLFGDNENHATVSDSKLVPNMSLDQSVVELYTDTTFAWSAGARAALWECGCATLGASFQYAQSKPKVEELNVLCNAAEFTINKPKGYVGQEFPLDLKAGTDGVTGTKDASIDYHEWQASLALSYRLNMFTPYIGVKWSRASFDADTIRIAQPKSATTVFDVTTLNPTIAGAGDVKASAEGQLGDTMQIVSLQLNKMKSRKSCGIAVGTTIVDADKYAVTVETRLIDERAAHVNAQFRF
binding: binds
